These are yes or no findings as the source states them, for the method shown. In cells and extracts the contact can be indirect. A result given as binding can be weak or reduced; the word gives no strength.
Target: GST-14-3-3ζ, expressed in COS-7 (UniProt P63104)
Assay: pull-down; COS-7 cells co-expressing GST-14-3-3ζ and HA-Notch4-ΔhN4; treated with γ-secretase inhibitor BMS-708163 (1 μM, 1 h), EGF (100 ng/ml, 15 min) or both; lysate on GSH sepharose

Protein sequences, listed by entry. Tags and fused reporters are not part of them. Lines headed by an entry give the natural chain unless they say otherwise; changes in a name come on top.
UniProt P63104: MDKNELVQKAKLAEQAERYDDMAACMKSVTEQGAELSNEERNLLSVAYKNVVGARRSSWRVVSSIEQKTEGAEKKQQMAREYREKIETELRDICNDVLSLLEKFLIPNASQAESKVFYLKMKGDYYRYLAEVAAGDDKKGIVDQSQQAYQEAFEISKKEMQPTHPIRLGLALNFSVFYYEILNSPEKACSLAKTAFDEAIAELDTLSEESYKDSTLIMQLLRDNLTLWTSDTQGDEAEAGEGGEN
UniProt Q99466: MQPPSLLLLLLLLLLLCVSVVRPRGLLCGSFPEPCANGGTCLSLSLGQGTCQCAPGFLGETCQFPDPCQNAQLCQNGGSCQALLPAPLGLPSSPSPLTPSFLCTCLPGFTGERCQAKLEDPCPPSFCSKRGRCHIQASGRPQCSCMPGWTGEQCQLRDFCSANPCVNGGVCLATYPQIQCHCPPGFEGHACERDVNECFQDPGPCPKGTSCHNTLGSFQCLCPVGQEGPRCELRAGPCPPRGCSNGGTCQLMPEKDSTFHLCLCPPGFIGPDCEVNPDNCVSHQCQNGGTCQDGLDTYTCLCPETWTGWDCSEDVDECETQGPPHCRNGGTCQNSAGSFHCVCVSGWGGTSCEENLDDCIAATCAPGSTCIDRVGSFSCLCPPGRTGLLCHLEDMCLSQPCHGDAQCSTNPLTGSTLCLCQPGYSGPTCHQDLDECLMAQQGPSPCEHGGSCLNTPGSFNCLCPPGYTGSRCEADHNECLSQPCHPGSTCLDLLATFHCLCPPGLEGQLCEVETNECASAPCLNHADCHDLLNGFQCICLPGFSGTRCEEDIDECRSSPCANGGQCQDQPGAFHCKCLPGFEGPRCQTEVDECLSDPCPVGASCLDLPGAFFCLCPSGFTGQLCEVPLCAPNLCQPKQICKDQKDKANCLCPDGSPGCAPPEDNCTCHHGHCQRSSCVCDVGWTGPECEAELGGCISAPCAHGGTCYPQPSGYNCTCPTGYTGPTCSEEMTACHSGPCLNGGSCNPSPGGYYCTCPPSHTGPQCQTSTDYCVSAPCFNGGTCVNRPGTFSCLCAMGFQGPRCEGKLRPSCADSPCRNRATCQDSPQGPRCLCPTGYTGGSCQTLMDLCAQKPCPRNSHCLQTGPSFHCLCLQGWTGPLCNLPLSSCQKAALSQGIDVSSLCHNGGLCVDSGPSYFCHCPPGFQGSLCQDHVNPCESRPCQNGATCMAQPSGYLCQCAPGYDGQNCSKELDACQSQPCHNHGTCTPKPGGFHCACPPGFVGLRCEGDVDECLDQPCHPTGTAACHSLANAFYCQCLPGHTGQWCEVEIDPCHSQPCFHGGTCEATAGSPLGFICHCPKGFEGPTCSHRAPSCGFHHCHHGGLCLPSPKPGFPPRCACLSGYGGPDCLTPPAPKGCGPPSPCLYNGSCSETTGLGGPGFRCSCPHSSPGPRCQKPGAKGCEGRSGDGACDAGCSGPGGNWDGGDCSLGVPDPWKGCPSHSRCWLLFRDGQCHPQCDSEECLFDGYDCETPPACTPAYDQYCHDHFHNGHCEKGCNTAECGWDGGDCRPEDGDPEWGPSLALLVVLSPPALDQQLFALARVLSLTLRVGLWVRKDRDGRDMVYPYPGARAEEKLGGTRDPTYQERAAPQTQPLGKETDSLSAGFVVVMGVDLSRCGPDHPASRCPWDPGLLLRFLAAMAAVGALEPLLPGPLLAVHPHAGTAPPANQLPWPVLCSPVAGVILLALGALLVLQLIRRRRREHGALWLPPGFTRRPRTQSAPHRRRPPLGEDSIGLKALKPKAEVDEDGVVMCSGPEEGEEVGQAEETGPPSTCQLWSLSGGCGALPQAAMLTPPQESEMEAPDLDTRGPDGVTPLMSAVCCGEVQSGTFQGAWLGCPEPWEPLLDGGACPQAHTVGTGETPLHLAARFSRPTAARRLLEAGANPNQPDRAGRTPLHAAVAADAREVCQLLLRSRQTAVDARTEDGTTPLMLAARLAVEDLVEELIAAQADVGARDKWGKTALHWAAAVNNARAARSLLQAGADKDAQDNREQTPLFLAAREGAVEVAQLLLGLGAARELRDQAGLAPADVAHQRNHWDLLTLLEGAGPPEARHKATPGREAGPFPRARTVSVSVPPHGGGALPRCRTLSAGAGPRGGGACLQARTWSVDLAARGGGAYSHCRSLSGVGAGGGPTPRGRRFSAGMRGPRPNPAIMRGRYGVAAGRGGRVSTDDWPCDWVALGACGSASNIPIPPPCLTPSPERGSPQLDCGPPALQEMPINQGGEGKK

Q: Which binding does the source give for “HA-Notch4-ΔhN4 (from UniProt Q99466) (receptor)” here?
A: binds

— paper PMC4350099
